# Test results reported in publication PMC12442443, “Identifying interactions between TDP‐43's N‐terminal and RNA‐binding domains” (Protein Science : A Publication of the Protein Society, 2024).
# The chains behind the UniProt entries cited, without tags or fusion partners. Residues count along the entry.
# UniProt Q13148, 102-260: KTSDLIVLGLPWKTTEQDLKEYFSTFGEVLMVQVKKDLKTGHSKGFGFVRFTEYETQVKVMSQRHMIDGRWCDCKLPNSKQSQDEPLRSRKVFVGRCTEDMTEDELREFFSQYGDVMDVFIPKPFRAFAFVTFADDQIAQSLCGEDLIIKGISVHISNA
# No signal at the amounts used counts as a negative.
# Molecular target: TDP-43 102-260 (RRM1-RRM2) (Homo sapiens) (UniProt Q13148)
# Test: MST
# Conditions: fits non-binder model, authors report binding by HTRF; recombinant protein
sequence,measurement,value
UGUGUGUG [(UG)4],binding result,no binding
